The values below come from article PMC8771836.

The chains behind the UniProt entries cited, without tags or fusion partners.
UniProt Q9NQB0: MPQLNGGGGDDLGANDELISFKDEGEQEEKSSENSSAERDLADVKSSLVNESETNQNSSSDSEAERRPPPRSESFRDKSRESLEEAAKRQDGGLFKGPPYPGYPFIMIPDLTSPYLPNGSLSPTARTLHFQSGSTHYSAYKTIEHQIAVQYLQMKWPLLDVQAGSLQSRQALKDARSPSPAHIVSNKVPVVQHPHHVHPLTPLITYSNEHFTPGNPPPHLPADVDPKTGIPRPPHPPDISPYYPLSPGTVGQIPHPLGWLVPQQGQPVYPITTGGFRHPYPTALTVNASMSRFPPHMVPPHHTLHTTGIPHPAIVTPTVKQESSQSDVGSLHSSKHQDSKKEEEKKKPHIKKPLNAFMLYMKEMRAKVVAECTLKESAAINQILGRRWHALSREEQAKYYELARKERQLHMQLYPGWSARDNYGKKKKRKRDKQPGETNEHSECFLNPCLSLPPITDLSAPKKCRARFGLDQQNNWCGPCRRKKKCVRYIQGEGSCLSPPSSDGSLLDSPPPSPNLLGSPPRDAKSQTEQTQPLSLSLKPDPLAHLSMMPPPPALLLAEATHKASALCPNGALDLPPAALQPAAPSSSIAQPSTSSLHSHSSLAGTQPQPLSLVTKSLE

This experiment has as its target TCF4 (human (endogenous in NPC cells)) (UniProt Q9NQB0). Kind of experiment: co-IP; NP-40 lysate of NPC cells, about 1-2 mg protein per part (Input, IgG, IP); IgG or IP antibody overnight at 4 C; protein A/G magnetic beads; detection by western blotting.

Results are given in words; binding and its absence hold for the method and conditions named. In cells and extracts the contact can be indirect. Some entries that bind do so weakly or less than the wild type.

B1: Transducin β-like protein 1 X (protein, UniProt O60907 1-577)
chain: MTELAGASSSCCHRPAGRGAMQSVLHHFQRLRGREGGSHFINTSSPRGEAKMSITSDEVNFLVYRYLQESGFSHSAFTFGIESHISQSNINGTLVPPAALISILQKGLQYVEAEISINEDGTVFDGRPIESLSLIDAVMPDVVQTRQQAFREKLAQQQASAAAAAAAATAAATAATTTSAGVSHQNPSKNREATVNGEENRAHSVNNHAKPMEIDGEVEIPSSKATVLRGHESEVFICAWNPVSDLLASGSGDSTARIWNLNENSNGGSTQLVLRHCIREGGHDVPSNKDVTSLDWNTNGTLLATGSYDGFARIWTEDGNLASTLGQHKGPIFALKWNRKGNYILSAGVDKTTIIWDAHTGEAKQQFPFHSAPALDVDWQNNTTFASCSTDMCIHVCRLGCDRPVKTFQGHTNEVNAIKWDPSGMLLASCSDDMTLKIWSMKQEVCIHDLQAHNKEIYTIKWSPTGPATSNPNSNIMLASASFDSTVRLWDIERGVCTHTLTKHQEPVYSVAFSPDGKYLASGSFDKCVHIWNTQSGNLVHSYRGTGGIFEVCWNARGDKVGASASDGSVCVLDLRK
For B1, the binding result is recorded as “binds”.
